Source: patent US12378320B2, “Methods for treating pancreatitis” (Cold Spring Harbor Laboratory, priority 2018, dated 2025)

Test system: CA19-9 modified proteins
Assay: CA19-9 IP/MS (iTRAQ) of organoid conditioned media after Dox treatment
Set-up: species or system mouse
Conditions: CA19-9 IP/MS relative abundance; for 17 0H NS19 / 17 8H 5B1 / 17 8H NS19: A217 (genetic negative) organoid conditioned media; for 17 0H NS19 / 20 0H 5B1: 0H (before treatment); for 17 0H NS19 / 17 8H NS19: IP with NS19-9; for 17 0H NS19: reference channel = 1; for 17 8H 5B1 / 17 8H NS19: after 8 hours; for 17 8H 5B1 / 20 0H 5B1: IP with 5B1; for 20 0H 5B1: A220 (C;R^LSL;F) organoid conditioned media

Molecule	17 0H NS19	17 8H 5B1	17 8H NS19	20 0H 5B1
Q02053 (protein, UniProt Q02053 1-1058, looked up, full-length) MSSSPLSKKRRVSGPDPKPGSNCSPAQSALSEVSSVPTNGMAKNGSEADIDESLYSRQLYVLGHEAMKMLQTSSVLVSGLRGLGVEIAKNIILGGVKAVTLHDQGTTQWADLSSQFYLREEDIGKNRAEVSQPRLAELNSYVPVTAYTGPLVEDFLSSFQVVVLTNSPLEAQLRVGEFCHSRGIKLVVADTRGLFGQLFCDFGEEMVLTDSNGEQPLSAMVSMVTKDNPGVVTCLDEARHGFETGDFVSFSEVQGMIQLNGCQPMEIKVLGPYTFSICDTSNFSDYIRGGIVSQVKVPKKISFKSLPASLVEPDFVMTDFAKYSRPAQLHIGFQALHQFCALHNQPPRPRNEEDATELVGLAQAVNARSPPSVKQNSLDEDLIRKLAYVAAGDLAPINAFIGGLAAQEVMKACSGKFMPIMQWLYFDALECLPEDKEALTEEKCLPRQNRYDGQVAVFGSDFQEKLSKQKYFLVGAGAIGCELLKNFAMIGLGCGEGGEVVVTDMDTIEKSNLNRQFLFRPWDVTKLKSDTAAAAVRQMNPYIQVTSHQNRVGPDTERIYDDDFFQNLDGVANALDNIDARMYMDRRCVYYRKPLLESGTLGTKGNVQVVIPFLTESYSSSQDPPEKSIPICTLKNFPNAIEHTLQWARDEFEGLFKQPAENVNQYLTDSKFVERTLRLAGTQPLEVLEAVQRSLVLQRPQTWGDCVTWACHHWHTQYCNNIRQLLHNFPPDQLTSSGAPFWSGPKRCPHPLTFDVNNTLHLDYVMAAANLFAQTYGLTGSQDRAAVASLLQSVQVPEFTPKSGVKIHVSDQELQSANASVDDSRLEELKATLPSPDKLPGFKMYPIDFEKDDDSNFHMDFIVAASNLRAENYDISPADRHKSKLIAGKIIPAIATTTAAVVGLVCLELYKVVQGHQQLDSYKNGFLNLALPFFGFSEPLAAPRHQYYNQEWTLWDRFEVQGLQPNGEEMTLKQFLDYFKTEHKLEITMLSQGVSMLYSFFMPAAKLKERLDQPMTEIVSRVSKRKLGRHVRALVLELCCNDESGEDVEVPYVRYTIR	1	3.389	0.563	2.73
P80315 (protein, UniProt P80315 1-539, looked up, full-length) MPENVASRSGAPTAGPGSRGKSAYQDRDKPAQIRFSNISAAKAVADAIRTSLGPKGMDKMIQDGKGDVTITNDGATILKQMQVLHPAARMLVELSKAQDIEAGDGTTSVVIIAGSLLDSCTKLLQKGIHPTIISESFQKALEKGLEILTDMSRPVQLSDRETLLNSATTSLNSKVVSQYSSLLSPMSVNAVMKVIDPATATSVDLRDIKIVKKLGGTIDDCELVEGLVLTQKVANSGITRVEKAKIGLIQFCLSAPKTDMDNQIVVSDYAQMDRVLREERAYILNLVKQIKKTGCNVLLIQKSILRDALSDLALHFLNKMKIMVVKDVEREDIEFICKTIGTKPVAHIDQFTADMLGSAELAEEVSLNGSGKLFKITGCTSPGKTVTIVVRGSNKLVIEEAERSIHDALCVIRCLVKKRALIAGGGAPEIELALRLTEYSRTLSGMESYCVRAFADAMEVIPSTLAENAGLNPISTVTELRNRHAQGEKTTGINVRKGGISNILEEMVVQPLLVSVSALTLATETVRSILKIDDVVNTR	1	2.546	0.596	2.235
P80316 (protein, UniProt P80316 1-541, looked up, full-length) MASVGTLAFDEYGRPFLIIKDQDRKSRLMGLEALKSHIMAAKAVANTMRTSLGPNGLDKMMVDKDGDVTITNDGATILSMMDVDHQIAKLMVELSKSQDDEIGDGTTGVVVLAGALLEEAEQLLDRGIHPIRIADGYEQAARIAIQHLDKISDKVLVDINNPEPLIQTAKTTLGSKVINSCHRQMAEIAVNAVLTVADMERRDVDFELIKVEGKVGGRLEDTKLIKGVIVDKDFSHPQMPKKVVDAKIAILTCPFEPPKPKTKHKLDVMSVEDYKALQKYEKEKFEEMIKQIKETGANLAICQWGFDDEANHLLLQNGLPAVRWVGGPEIELIAIATGGRIVPRFSELTSEKLGFAGVVQEISFGTTKDKMLVIEKCKNSRAVTIFIRGGNKMIIEEAKRSLHDALCVIRNLIRDNRVVYGGGAAEISCALAVSQEADKCPTLEQYAMRAFADALEVIPMALSENSGMNPIQTMTEVRARQVKESNPALGIDCLHKGSNDMQYQHVIETLIGKKQQISLATQMVRMILKIDDIRKPGESEE	1	2.923	0.44	2.631
